{"source": "PubChem BioAssay AID248", "about": "(DTP/NCI, 2004)", "test_system": "L1210 leukemia ip in BDF1 mice, survival T/C", "assay": "NCI In Vivo Anticancer Drug Screen. Data for tumor model L1210 Leukemia (intraperitoneal) in B6D2F1 (BDF1) mice", "details": "T/C endpoint: mean survival time, higher T/C = longer survival", "key": {"[1]": {"details": "dose: 300.0 mg/kg/injection, schedule: Q01DX001 (ip), vehicle: saline"}, "[2]": {"details": "dose: 400.0 mg/kg/injection, schedule: Q01DX001 (ip), vehicle: saline"}}, "note": "The list shows only some results of the screen, not a fair sample: it is rich in T/C values a quarter to a half above the control, in often repeated tests (any T/C) and in doses without a T/C. Further doses and runs are listed elsewhere. T/C: endpoint of the treated group in % of that of the vehicle group. Some doses have a count of surviving animals in place of a T/C: the source files T/C as zero there, which appears to mark a toxic dose or a test without result, not a measured value. Some survivor counts are full or nearly so, which does not show that the dose was tolerated: survival well below the control is almost never listed, so the zero probably covers shortened survival too. Counts of survivors are from the toxicity check (mostly the fifth day) where no day follows; animals may have died later. Schedule codes are those of the source, read here as Q, the interval in days (D) or hours (H), X, the number of doses. Some schedule codes hold Z or #, which are not explained here. Some entries hold several experiments; the results are listed from low to high. Where survival is the endpoint, this PubChem deposit counts one and a half times the control or more as active, and values a quarter to a half above the control carry no call in these data; other NCI protocols may use other cut-offs. Some T/C values are followed by the survivors on the day toxicity was checked, most often the fifth; where none is given, no animal had died by that day.", "data": [{"smiles": "CCN1/C(=C/C=C/C=C/c2sc3ccccc3[n+]2CC)Sc2ccccc21", "values": [{"measurement": "survivor count", "setting": "dose: 0.16 mg/kg/injection, schedule: Q01DX009 (ip), vehicle: saline", "result": "6 of 6"}, {"measurement": "survivor count", "setting": "dose: 0.64 mg/kg/injection, schedule: Q01DX009 (ip), vehicle: saline", "result": "4 of 6"}, {"measurement": "survivor count", "setting": "dose: 0.78 mg/kg/injection, schedule: Q01DX009 (ip), vehicle: saline", "result": "1 of 3"}, {"measurement": "survivor count", "setting": "dose: 1.56 mg/kg/injection, schedule: Q01DX009 (ip), vehicle: saline", "result": "0 of 3"}, {"measurement": "survivor count", "setting": "dose: 1.6 mg/kg/injection, schedule: Q01DX001 (ip), vehicle: saline", "result": "2 of 6"}, {"measurement": "survivor count", "setting": "dose: 3.2 mg/kg/injection, schedule: Q01DX001 (ip), vehicle: saline", "result": "1 of 6"}, {"measurement": "survivor count", "setting": "dose: 6.25 mg/kg/injection, schedule: Q01DX009 (ip), vehicle: saline", "result": "0 of 3"}, {"measurement": "survivor count", "setting": "dose: 6.4 mg/kg/injection, schedule: Q01DX001 (ip), vehicle: saline", "result": "1 of 6"}, {"measurement": "survivor count", "setting": "dose: 9.5 mg/kg/injection, schedule: Q01DX001 (ip), vehicle: other", "result": "2 of 6"}, {"measurement": "survivor count", "setting": "dose: 12.5 mg/kg/injection, schedule: Q01DX009 (ip), vehicle: saline", "result": "0 of 3"}, {"measurement": "survivor count", "setting": "dose: 19.0 mg/kg/injection, schedule: Q01DX001 (ip), vehicle: other", "result": "4 of 6"}, {"measurement": "survivor count", "setting": "dose: 25.0 mg/kg/injection, schedule: Q01DX009 (ip), vehicle: saline", "result": "0 of 3 and 0 of 6"}, {"measurement": "survivor count", "setting": "dose: 38.0 mg/kg/injection, schedule: Q01DX001 (ip), vehicle: other", "result": "0 of 6"}, {"measurement": "survivor count", "setting": "dose: 50.0 mg/kg/injection, schedule: Q01DX009 (ip), vehicle: saline", "result": "0 of 6"}, {"measurement": "survivor count", "setting": "dose: 100.0 mg/kg/injection, schedule: Q01DX009 (ip), vehicle: saline", "result": "0 of 6"}, {"measurement": "survivor count", "setting": "dose: 200.0 mg/kg/injection, schedule: Q01DX009 (ip), vehicle: saline", "result": "0 of 6"}, {"measurement": "survivor count", "setting": "dose: 400.0 mg/kg/injection, schedule: Q01DX009 (ip), vehicle: saline", "result": "0 of 6"}]}, {"smiles": "S=C([S-])N1CCCCC1.S=C([S-])N1CCCCC1.[Zn]", "values": [{"measurement": "survivor count", "setting": "dose: 150.0 mg/kg/injection, schedule: Q01DX001 (ip), vehicle: saline", "result": "1 of 6"}, {"measurement": "survivor count", "setting": "[1]", "result": "0 of 6"}]}, {"smiles": "O=[N+]([O-])c1nncs1", "values": [{"measurement": "survivor count", "setting": "dose: 100.0 mg/kg/injection, schedule: Q04DX003 (ip), vehicle: saline sonified", "result": "1 of 6"}, {"measurement": "survivor count", "setting": "dose: 200.0 mg/kg/injection, schedule: Q04DX003 (ip), vehicle: saline sonified", "result": "0 of 6"}, {"measurement": "survivor count", "setting": "dose: 400.0 mg/kg/injection, schedule: Q04DX003 (ip), vehicle: saline sonified", "result": "0 of 6"}]}, {"smiles": "CN(C)c1ccc(-c2cc[n+](C)cc2)cc1", "values": [{"measurement": "survivor count", "setting": "dose: 12.5 mg/kg/injection, schedule: Q04DX003 (ip), vehicle: saline", "result": "0 of 6"}, {"measurement": "survivor count", "setting": "dose: 25.0 mg/kg/injection, schedule: Q04DX003 (ip), vehicle: saline", "result": "0 of 6"}, {"measurement": "survivor count", "setting": "dose: 50.0 mg/kg/injection, schedule: Q04DX003 (ip), vehicle: saline", "result": "0 of 6"}, {"measurement": "survivor count", "setting": "dose: 100.0 mg/kg/injection, schedule: Q04DX003 (ip), vehicle: saline", "result": "0 of 6"}, {"measurement": "survivor count", "setting": "dose: 200.0 mg/kg/injection, schedule: Q04DX003 (ip), vehicle: saline", "result": "0 of 6"}, {"measurement": "survivor count", "setting": "dose: 400.0 mg/kg/injection, schedule: Q04DX003 (ip), vehicle: saline", "result": "0 of 6"}]}, {"smiles": "O=C(O)CCSc1ccccc1", "values": [{"measurement": "survivor count", "setting": "dose: 150.0 mg/kg/injection, schedule: Q04DX003 (ip), vehicle: saline", "result": "3 of 6"}, {"measurement": "survivor count", "setting": "dose: 300.0 mg/kg/injection, schedule: Q04DX003 (ip), vehicle: saline", "result": "0 of 6"}]}, {"smiles": "O=[N+]([O-])/C=C/c1ccc(O)cc1", "values": [{"measurement": "survivor count", "setting": "dose: 100.0 mg/kg/injection, schedule: Q01DX015 (ip), vehicle: saline", "result": "0 of 6"}, {"measurement": "survivor count", "setting": "dose: 100.0 mg/kg/injection, schedule: Q04DX003 (ip), vehicle: acetone", "result": "2 of 6"}, {"measurement": "survivor count", "setting": "dose: 200.0 mg/kg/injection, schedule: Q01DX015 (ip), vehicle: saline", "result": "0 of 6"}]}, {"smiles": "CC1=CC(C)(C)NC(=S)N1c1cc(Cl)ccc1Cl", "values": [{"measurement": "survivor count", "setting": "dose: 750.0 mg/kg/injection, schedule: Q01DX Z (ip), vehicle: methylcellulose (MC)", "result": "5 of 6"}]}, {"smiles": "Cc1c(C(=O)OCCCl)c(=O)n(-c2ccccc2)n1C", "values": [{"measurement": "survivor count", "setting": "[2]", "result": "2 of 4"}]}, {"smiles": "Cc1c(Cl)c(C)c(Cl)c(O)c1Cl", "note": "(tested in a mixture with another compound)", "values": [{"measurement": "survivor count", "setting": "dose: 100.0 mg/kg/injection, schedule: Q01DX009 (ip), vehicle: saline with Tween-80", "result": "1 of 3"}, {"measurement": "survivor count", "setting": "dose: 400.0 mg/kg/injection, schedule: Q04DX002 (ip), vehicle: other", "result": "0 of 3"}]}, {"smiles": "CCOC(=O)c1cc(C(=O)OCC)c(=O)oc1OCC", "values": [{"measurement": "survivor count", "setting": "[1]", "result": "1 of 6"}]}, {"smiles": "Cc1cc(C(=O)O)c(C)c2c1sc1ccccc12", "values": [{"measurement": "survivor count", "setting": "[2]", "result": "2 of 4"}]}, {"smiles": "COCCCN=C(N)c1ccc(NC(=O)c2ccc(C(=O)Nc3ccc(C(N)=NCCCOC)cc3)cc2)cc1", "values": [{"measurement": "T/C", "setting": "dose: 1.5 mg/kg/injection, schedule: Q01DX Z (ip), vehicle: saline", "result": "134 % of control"}, {"measurement": "T/C", "setting": "dose: 2.0 mg/kg/injection, schedule: Q01DX Z (ip), vehicle: saline", "result": "147 % of control"}, {"measurement": "T/C", "setting": "dose: 8.0 mg/kg/injection, schedule: Q01DX Z (ip), vehicle: saline", "result": "141 % of control"}, {"measurement": "T/C", "setting": "dose: 8.0 mg/kg/injection, schedule: Q02DX004 (im), vehicle: saline", "result": "130 % of control"}, {"measurement": "T/C", "setting": "dose: 12.0 mg/kg/injection, schedule: Q01DX Z (ip), vehicle: saline", "result": "136 % of control"}, {"measurement": "T/C", "setting": "dose: 16.0 mg/kg/injection, schedule: Q01DX006 (iv), vehicle: saline", "result": "129 and 133 % of control [5 of 6 alive]"}, {"measurement": "T/C", "setting": "dose: 16.0 mg/kg/injection, schedule: Q02DX004 (im), vehicle: saline", "result": "138 % of control"}, {"measurement": "survivor count", "setting": "dose: 24.0 mg/kg/injection, schedule: Q01DX Z (ip), vehicle: saline", "result": "6 of 6"}, {"measurement": "survivor count", "setting": "dose: 30.0 mg/kg/injection, schedule: Q01DX Z (ip), vehicle: saline", "result": "6 of 6"}, {"measurement": "survivor count", "setting": "dose: 32.0 mg/kg/injection, schedule: Q01DX006 (iv), vehicle: saline", "result": "0 of 6"}, {"measurement": "survivor count", "setting": "dose: 60.0 mg/kg/injection, schedule: Q01DX Z (ip), vehicle: saline", "result": "1 of 6"}, {"measurement": "survivor count", "setting": "dose: 64.0 mg/kg/injection, schedule: Q01DX006 (iv), vehicle: saline", "result": "0 of 6"}, {"measurement": "survivor count", "setting": "dose: 64.0 mg/kg/injection, schedule: Q02DX004 (im), vehicle: saline", "result": "5 of 6"}, {"measurement": "survivor count", "setting": "dose: 120.0 mg/kg/injection, schedule: Q01DX Z (ip), vehicle: saline", "result": "0 of 6"}, {"measurement": "survivor count", "setting": "dose: 128.0 mg/kg/injection, schedule: Q01DX006 (iv), vehicle: saline", "result": "0 of 6"}, {"measurement": "survivor count", "setting": "dose: 128.0 mg/kg/injection, schedule: Q02DX004 (im), vehicle: saline", "result": "3 of 6"}, {"measurement": "T/C", "setting": "dose: 500.0 mg/kg/injection, schedule: Q## X010 (oral), vehicle: saline", "result": "143 % of control"}]}, {"smiles": "CCCn1cnc2c(=S)nc(N)[nH]c21", "values": [{"measurement": "T/C", "setting": "dose: 7.5 mg/kg/injection, schedule: Q01DX Z (ip), vehicle: methylcellulose (MC)", "result": "148 % of control [5 of 6 alive]"}, {"measurement": "T/C", "setting": "dose: 11.0 mg/kg/injection, schedule: Q01DX Z (ip), vehicle: methylcellulose (MC)", "result": "134 % of control [5 of 6 alive]"}]}, {"smiles": "NC(=S)N/N=C/c1cccnc1", "values": [{"measurement": "survivor count", "setting": "dose: 200.0 mg/kg/injection, schedule: Q04DX002 (ip), vehicle: Klucel (hydroxypropylcellulose) (HPC)", "result": "0 of 2"}, {"measurement": "survivor count", "setting": "dose: 400.0 mg/kg/injection, schedule: Q04DX002 (ip), vehicle: Klucel (hydroxypropylcellulose) (HPC)", "result": "0 of 3"}]}, {"smiles": "CCOc1ccccc1NCN1C(=O)c2ccccc2C1=O", "values": [{"measurement": "survivor count", "setting": "dose: 25.0 mg/kg/injection, schedule: Q01DX009 (ip), vehicle: saline with Tween-80", "result": "6 of 6"}, {"measurement": "survivor count", "setting": "dose: 50.0 mg/kg/injection, schedule: Q01DX009 (ip), vehicle: saline with Tween-80", "result": "6 of 6"}, {"measurement": "survivor count", "setting": "dose: 100.0 mg/kg/injection, schedule: Q04DX002 (ip), vehicle: saline with Tween-80", "result": "3 of 3"}, {"measurement": "survivor count", "setting": "dose: 200.0 mg/kg/injection, schedule: Q01DX009 (ip), vehicle: saline with Tween-80", "result": "6 of 6"}, {"measurement": "survivor count", "setting": "dose: 400.0 mg/kg/injection, schedule: Q01DX009 (ip), vehicle: saline with Tween-80", "result": "6 of 6"}]}, {"smiles": "[N-]=[N+]=C1N=NC=C1C(N)=O", "values": [{"measurement": "survivor count", "setting": "[2]", "result": "0 of 4"}]}, {"smiles": "COc1ccccc1N1C(=O)C2C(C1=O)C1(Cl)C(Cl)=C(Cl)C2(Cl)C1(Cl)Cl", "note": "(stereo not drawn)", "values": [{"measurement": "survivor count", "setting": "dose: 300.0 mg/kg/injection, schedule: Q01DX009 (ip), vehicle: Klucel (hydroxypropylcellulose) (HPC)", "result": "1 of 6"}, {"measurement": "survivor count", "setting": "dose: 400.0 mg/kg/injection, schedule: Q04DX003 (ip), vehicle: Klucel (hydroxypropylcellulose) (HPC)", "result": "3 of 6"}]}]}
